Measured values published in PMC6796953.
Results are given in words; binding and its absence hold for the method and conditions named. In cells and extracts the contact can be indirect. Some results given as binding are weak or reduced against the parent protein; the word gives no strength. Sequences can lack the tags named with a protein.

Biological target: T1, GFP-mRbm14 (mouse) (UniProt Q8C2Q3)
T1 sequence: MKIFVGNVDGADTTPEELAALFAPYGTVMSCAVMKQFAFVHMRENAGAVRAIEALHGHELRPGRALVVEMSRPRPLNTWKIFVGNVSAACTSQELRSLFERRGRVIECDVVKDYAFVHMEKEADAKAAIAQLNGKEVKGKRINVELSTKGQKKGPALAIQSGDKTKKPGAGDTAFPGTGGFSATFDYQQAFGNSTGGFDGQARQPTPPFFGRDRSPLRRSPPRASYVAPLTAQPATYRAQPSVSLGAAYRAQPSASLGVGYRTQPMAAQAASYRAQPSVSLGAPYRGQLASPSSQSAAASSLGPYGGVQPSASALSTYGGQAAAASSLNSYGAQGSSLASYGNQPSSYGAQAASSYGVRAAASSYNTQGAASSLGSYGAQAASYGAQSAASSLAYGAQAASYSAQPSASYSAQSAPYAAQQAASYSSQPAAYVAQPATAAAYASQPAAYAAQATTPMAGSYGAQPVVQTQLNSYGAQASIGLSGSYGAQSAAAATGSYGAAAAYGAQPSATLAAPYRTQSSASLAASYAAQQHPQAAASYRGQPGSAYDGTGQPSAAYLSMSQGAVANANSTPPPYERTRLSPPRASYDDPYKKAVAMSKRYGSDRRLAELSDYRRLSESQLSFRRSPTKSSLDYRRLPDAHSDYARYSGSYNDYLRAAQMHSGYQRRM
Assay: co-IP; GFP, GFP-mRbm14 or GFP-zRbm14b expressed in HeLa cells, immunoprecipitated with anti-GFP resin; immunoblot for endogenous hnRNP proteins

- binding: binds
B1: hnRNPL (human) (protein, UniProt P14866 1-589)
chain: MSRRLLPRAEKRRRRLEQRQQPDEQRRRSGAMVKMAAAGGGGGGGRYYGGGSEGGRAPKRLKTDNAGDQHGGGGGGGGGAGAAGGGGGGENYDDPHKTPASPVVHIRGLIDGVVEADLVEALQEFGPISYVVVMPKKRQALVEFEDVLGACNAVNYAADNQIYIAGHPAFVNYSTSQKISRPGDSDDSRSVNSVLLFTILNPIYSITTDVLYTICNPCGPVQRIVIFRKNGVQAMVEFDSVQSAQRAKASLNGADIYSGCCTLKIEYAKPTRLNVFKNDQDTWDYTNPNLSGQGDPGSNPNKRQRQPPLLGDHPAEYGGPHGGYHSHYHDEGYGPPPPHYEGRRMGPPVGGHRRGPSRYGPQYGHPPPPPPPPEYGPHADSPVLMVYGLDQSKMNCDRVFNVFCLYGNVEKVKFMKSKPGAAMVEMADGYAVDRAITHLNNNFMFGQKLNVCVSKQPAIMPGQSYGLEDGSCSYKDFSESRNNRFSTPEQAAKNRIQHPSNVLHFFNAPLEVTEENFFEICDELGVKRPSSVKVFSGKSERSSSGLLEWESKSDALETLGFLNHYQMKNPNGPYPYTLKLCFSTAQHAS
